The supplement of paper PMC10849652
Some of the results follow.

Protein sequences, listed by entry. Tags and fused reporters are not part of them. Lines headed by an entry give the natural chain unless they say otherwise; changes in a name come on top.
UniProt Q8NC44: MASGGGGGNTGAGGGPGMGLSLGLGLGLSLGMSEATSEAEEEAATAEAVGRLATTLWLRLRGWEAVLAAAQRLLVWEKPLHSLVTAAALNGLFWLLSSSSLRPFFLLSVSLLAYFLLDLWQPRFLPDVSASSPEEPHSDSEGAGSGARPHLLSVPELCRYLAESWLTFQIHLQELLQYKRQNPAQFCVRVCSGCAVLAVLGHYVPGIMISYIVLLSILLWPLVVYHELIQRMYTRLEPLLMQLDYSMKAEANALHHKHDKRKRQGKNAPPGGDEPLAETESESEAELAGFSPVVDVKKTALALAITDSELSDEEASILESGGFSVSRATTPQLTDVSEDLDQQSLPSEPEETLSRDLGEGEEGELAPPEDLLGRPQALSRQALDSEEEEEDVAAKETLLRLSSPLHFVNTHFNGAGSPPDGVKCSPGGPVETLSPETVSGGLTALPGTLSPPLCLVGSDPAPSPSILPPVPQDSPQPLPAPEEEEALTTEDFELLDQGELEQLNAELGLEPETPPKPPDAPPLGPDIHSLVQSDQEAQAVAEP
UniProt Q9NVW2: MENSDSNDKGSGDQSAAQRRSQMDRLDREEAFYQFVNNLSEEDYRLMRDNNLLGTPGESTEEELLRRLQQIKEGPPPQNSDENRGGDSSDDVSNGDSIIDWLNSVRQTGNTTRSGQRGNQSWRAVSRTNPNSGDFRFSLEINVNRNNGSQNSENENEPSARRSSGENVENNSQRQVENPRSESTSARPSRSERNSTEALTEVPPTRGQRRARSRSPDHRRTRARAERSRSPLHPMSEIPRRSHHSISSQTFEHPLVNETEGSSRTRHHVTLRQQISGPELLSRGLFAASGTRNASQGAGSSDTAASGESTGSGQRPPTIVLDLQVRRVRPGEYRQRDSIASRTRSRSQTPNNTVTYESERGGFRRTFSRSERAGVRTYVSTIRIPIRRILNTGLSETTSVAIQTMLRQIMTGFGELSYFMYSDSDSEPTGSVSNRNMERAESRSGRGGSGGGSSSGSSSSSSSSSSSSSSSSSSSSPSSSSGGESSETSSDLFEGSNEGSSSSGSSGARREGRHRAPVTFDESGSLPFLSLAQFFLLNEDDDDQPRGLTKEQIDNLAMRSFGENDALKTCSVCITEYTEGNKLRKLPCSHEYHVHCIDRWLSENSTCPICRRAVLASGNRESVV
UniProt O43665: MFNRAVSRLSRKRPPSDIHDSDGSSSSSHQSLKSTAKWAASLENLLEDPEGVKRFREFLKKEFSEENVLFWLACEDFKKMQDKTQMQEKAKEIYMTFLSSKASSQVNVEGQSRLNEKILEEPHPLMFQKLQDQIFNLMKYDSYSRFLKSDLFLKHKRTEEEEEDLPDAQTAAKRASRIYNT
UniProt O00584, whole entry, looked up: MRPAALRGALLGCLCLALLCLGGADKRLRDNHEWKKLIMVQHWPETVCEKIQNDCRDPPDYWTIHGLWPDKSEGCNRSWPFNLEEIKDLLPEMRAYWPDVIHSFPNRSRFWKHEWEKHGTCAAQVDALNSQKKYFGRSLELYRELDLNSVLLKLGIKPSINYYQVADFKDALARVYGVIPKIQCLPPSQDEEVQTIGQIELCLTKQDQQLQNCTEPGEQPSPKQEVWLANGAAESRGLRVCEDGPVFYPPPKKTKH
UniProt A6NEQ0: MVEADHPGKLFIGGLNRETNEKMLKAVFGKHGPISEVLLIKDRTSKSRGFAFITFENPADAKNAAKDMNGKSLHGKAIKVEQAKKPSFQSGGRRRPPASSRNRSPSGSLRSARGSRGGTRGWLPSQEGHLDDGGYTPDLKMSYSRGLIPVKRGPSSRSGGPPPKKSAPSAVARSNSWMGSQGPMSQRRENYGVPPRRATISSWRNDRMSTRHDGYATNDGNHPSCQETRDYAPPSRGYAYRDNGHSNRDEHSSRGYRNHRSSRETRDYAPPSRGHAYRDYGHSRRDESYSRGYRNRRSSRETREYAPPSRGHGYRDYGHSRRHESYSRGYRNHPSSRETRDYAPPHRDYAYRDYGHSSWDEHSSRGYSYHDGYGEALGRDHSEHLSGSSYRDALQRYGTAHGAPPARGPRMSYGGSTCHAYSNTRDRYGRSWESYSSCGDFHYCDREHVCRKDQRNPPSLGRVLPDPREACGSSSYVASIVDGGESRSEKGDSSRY
UniProt Q6NUM9: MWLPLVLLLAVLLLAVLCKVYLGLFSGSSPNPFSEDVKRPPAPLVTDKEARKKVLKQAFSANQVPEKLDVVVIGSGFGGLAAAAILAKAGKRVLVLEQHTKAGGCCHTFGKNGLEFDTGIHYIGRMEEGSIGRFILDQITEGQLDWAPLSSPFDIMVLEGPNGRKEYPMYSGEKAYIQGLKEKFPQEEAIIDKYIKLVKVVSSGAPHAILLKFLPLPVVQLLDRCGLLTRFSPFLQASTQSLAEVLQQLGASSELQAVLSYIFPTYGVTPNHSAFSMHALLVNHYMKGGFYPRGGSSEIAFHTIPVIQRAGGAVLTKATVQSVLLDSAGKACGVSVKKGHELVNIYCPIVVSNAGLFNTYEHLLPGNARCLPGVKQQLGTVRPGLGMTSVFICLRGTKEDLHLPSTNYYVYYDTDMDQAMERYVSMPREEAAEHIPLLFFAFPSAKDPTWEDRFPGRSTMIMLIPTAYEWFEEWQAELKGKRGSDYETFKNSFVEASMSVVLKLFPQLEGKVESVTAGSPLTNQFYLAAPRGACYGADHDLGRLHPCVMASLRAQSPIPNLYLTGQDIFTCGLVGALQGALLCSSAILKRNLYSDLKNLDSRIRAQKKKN
UniProt Q9UKL0, whole entry, looked up: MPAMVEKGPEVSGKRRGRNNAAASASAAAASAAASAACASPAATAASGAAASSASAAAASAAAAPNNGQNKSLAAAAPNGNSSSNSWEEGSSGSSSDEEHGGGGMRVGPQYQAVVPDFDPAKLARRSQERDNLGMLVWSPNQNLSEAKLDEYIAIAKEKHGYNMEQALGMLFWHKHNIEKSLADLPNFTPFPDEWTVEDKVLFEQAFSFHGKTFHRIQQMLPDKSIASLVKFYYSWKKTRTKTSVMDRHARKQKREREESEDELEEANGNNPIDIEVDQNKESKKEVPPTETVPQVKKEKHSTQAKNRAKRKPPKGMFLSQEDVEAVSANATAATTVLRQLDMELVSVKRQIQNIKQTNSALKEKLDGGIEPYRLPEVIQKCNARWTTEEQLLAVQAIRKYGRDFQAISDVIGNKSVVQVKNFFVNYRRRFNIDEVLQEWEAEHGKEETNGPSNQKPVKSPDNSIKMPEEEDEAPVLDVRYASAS
UniProt Q6R327, whole entry, looked up: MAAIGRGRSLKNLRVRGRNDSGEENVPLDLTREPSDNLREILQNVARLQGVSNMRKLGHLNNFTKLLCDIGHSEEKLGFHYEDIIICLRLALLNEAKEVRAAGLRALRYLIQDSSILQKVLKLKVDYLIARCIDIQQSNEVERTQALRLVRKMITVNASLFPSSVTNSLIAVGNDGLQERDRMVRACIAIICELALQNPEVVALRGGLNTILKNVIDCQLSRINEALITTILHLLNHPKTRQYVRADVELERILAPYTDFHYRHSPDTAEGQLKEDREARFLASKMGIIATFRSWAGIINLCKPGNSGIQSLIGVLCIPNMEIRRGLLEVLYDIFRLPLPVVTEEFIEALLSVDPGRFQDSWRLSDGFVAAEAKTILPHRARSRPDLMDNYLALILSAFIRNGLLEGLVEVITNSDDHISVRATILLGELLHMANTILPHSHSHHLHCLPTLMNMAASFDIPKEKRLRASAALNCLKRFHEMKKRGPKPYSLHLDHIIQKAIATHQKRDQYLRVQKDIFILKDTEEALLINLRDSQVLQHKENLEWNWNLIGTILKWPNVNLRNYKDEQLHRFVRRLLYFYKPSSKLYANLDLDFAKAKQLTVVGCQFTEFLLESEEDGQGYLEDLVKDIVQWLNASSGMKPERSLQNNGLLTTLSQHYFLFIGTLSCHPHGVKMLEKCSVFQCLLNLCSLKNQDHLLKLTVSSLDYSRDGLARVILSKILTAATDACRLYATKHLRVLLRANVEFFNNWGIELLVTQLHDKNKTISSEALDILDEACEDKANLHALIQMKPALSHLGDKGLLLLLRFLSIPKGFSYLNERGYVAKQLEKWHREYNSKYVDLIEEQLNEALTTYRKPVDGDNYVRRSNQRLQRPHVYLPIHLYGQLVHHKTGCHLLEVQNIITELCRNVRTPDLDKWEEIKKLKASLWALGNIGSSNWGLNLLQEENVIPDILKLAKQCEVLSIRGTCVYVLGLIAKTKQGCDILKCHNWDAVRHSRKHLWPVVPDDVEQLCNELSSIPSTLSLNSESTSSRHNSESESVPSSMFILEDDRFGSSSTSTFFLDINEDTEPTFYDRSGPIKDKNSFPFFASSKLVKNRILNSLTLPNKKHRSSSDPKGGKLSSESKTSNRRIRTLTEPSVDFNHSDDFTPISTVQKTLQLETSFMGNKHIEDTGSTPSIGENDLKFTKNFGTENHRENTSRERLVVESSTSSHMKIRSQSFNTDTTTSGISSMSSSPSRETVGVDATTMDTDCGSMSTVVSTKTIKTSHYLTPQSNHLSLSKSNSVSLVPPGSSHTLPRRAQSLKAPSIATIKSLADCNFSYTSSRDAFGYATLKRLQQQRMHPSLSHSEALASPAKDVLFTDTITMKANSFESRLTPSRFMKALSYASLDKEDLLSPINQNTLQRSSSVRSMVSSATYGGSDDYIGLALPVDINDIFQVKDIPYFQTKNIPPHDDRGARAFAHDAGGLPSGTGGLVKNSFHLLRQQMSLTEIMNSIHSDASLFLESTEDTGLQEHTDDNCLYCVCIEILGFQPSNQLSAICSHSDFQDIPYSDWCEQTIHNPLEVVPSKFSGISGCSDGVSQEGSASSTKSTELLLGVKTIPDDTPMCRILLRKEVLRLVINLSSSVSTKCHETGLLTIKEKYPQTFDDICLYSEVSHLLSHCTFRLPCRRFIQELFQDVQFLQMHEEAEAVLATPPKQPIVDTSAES
UniProt Q5VTB9: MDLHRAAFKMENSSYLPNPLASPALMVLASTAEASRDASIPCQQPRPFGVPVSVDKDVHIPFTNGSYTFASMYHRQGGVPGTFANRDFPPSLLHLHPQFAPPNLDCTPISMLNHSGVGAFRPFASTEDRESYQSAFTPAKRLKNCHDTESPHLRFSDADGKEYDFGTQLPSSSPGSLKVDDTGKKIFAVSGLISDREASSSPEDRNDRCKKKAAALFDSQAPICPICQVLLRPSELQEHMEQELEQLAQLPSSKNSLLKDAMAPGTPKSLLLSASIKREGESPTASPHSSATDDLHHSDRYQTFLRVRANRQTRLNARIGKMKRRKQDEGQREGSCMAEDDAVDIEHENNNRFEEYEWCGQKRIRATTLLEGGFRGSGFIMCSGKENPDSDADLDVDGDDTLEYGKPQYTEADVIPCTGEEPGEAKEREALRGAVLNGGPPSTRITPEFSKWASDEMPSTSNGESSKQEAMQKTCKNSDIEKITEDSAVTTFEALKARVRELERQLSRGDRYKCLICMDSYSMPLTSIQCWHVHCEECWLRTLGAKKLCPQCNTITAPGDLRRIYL
UniProt Q9NPQ8: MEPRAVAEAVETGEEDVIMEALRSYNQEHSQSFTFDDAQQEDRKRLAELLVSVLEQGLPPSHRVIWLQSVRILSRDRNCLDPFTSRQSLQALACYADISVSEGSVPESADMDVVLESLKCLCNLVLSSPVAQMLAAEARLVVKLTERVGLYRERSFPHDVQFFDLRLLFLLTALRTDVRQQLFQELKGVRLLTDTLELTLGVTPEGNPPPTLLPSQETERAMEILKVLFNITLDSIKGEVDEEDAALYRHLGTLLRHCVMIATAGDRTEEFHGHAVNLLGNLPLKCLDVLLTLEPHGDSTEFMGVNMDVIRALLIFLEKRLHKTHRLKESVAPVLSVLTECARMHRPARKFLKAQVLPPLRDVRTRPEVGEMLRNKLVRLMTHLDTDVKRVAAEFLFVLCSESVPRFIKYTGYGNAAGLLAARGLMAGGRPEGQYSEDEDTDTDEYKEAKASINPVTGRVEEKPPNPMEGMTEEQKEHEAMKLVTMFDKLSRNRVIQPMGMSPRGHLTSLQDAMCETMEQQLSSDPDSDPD
UniProt Q04206, whole entry, looked up: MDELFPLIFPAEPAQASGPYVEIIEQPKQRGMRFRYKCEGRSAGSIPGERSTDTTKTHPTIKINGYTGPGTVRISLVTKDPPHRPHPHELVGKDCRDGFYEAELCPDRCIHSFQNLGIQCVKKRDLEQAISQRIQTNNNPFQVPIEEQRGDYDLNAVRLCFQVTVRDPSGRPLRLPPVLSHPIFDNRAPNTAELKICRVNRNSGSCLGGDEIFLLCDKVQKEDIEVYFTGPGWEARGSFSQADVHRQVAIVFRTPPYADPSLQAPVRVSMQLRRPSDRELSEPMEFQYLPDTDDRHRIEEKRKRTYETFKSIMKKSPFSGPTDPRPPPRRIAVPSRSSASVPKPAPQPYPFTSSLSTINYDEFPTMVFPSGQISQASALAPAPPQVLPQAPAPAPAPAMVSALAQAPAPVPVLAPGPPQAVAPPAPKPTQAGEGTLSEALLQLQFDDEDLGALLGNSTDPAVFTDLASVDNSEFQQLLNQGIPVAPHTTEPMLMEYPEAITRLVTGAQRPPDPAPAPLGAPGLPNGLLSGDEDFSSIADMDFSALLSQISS

Assays:
Experiment in all cases: log2 fold change, soluble protein after heating vs DMSO (PISA); higher = thermal stabilisation; K562 cells, 10 uM, 30 min; active = over 0.2 and 3.5 SD of the protein, either way, in both replicates (recomputed)
[1] = compound: CC[C@@H]1C(=O)N(C)c2cnc(Nc3ccc(C(=O)NC4CCN(C)CC4)cc3OC)nc2N1C1CCCC1
How it was run: (§1)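 K562 cells at 2×10^6 cells/mL were treated for 30 min with 10 μM compound, and aliquots were heated for 3 min over 48°C-58°C before pooling. Extraction used PBS with 0.5% NP-40 at 4°C, and soluble protein was the supernatant after 21,000xg for 90 min, measured by TMTpro 16plex LC-MS/MS with channel sums equalised. Thermal stability values, relative to control samples and from duplicates, are log2 fold changes.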

volasertib = compound: CC[C@@H]1C(=O)N(C)c2cnc(Nc3ccc(C(=O)N[C@H]4CC[C@H](N5CCN(CC6CC6)CC5)CC4)cc3OC)nc2N1C(C)C [volasertib]
How it was run: as §1

[2] = compound: CC[C@H](C)N1C=C(C2=C(C=C(C=C21)C3=CN=C(C=C3)N4CCNCC4)C(=O)NCC5=C(C=C(NC5=O)C)C)C
How it was run: as §1

[3] = compound: CCn1c(C(=O)N(C2CC2)C2CC2)cc2c3c(ncn3C)c(Nc3cc(C)n(C)n3)nc21
How it was run: as §1

[4] = compound: CN(C)CC(=O)Nc1ccc2[nH]c(=O)c3ccccc3c2c1
How it was run: as §1

rosiglitazone = compound: CN(CCOC1=CC=C(C=C1)C[C@H]2C(=O)NC(=O)S2)C3=CC=CC=N3 (racemic) [rosiglitazone]
How it was run: as §1

[5] = compound: CN1C2=C(C3=C1C(=O)N(N=C3)CC4=CC(=CC=C4)N)SC(=C2)S(=O)C
How it was run: as §1

[6] = compound: CCn1cc(-c2ccnc3[nH]c(-c4cccc(CN(C)C)c4)cc23)c(-c2ccc(NC(=O)N(C)C)cc2)n1
How it was run: as §1

[7] = compound: CN1CCC(CNc2ccc3ncc(-c4cccc(OC(F)(F)F)c4)n3n2)CC1
How it was run: as §1

epoxomicin = compound: CC[C@H](C)[C@@H](C(=O)N[C@@H]([C@@H](C)O)C(=O)N[C@@H](CC(C)C)C(=O)[C@]1(CO1)C)NC(=O)[C@H]([C@@H](C)CC)N(C)C(=O)C [epoxomicin]
How it was run: as §1

Target	log2 fold change [1]	log2 fold change (volasertib)	log2 fold change [2]	log2 fold change [3]	log2 fold change [4]	log2 fold change (rosiglitazone)	log2 fold change [5]	log2 fold change [6]	log2 fold change [7]	log2 fold change (epoxomicin)
RETREG2 (UniProt Q8NC44)	inactive: 0.002	inactive: -0.069	inactive: -0.021	inactive: -0.022	inactive: 0.022	inactive: 0.004	inactive: 0.031			
RLIM (UniProt Q9NVW2)	inactive: 0.15	inactive: 0			inactive: -0.04		inactive: -0.125	inactive: -0.231	inactive: -0.08	
RNF185 (UniProt Q96GF1)	inactive: -0.041	inactive: -0.101	inactive: -0.06		inactive: 0.028			inactive: -0.003	inactive: 0.09	
RGS10 (UniProt O43665)	inactive: -0.097	active: -0.205	inactive: -0.043		inactive: 0.078		inactive: -0.111	inactive: 0.011	inactive: -0.016	inactive: 0.101
RGN (UniProt Q15493)	inactive: -0.156	inactive: 0.119	inactive: -0.154		inactive: -0.04					
RNASET2 (UniProt O00584)	active: -0.275	inactive: -0.196	inactive: 0.023		inactive: 0.036		inactive: -0.036	inactive: 0.045	active: -0.413	inactive: -0.027
RBMY1E (UniProt A6NEQ0)	inactive: -0.068	inactive: -0.236	inactive: -0.034					inactive: 0.084	inactive: -0.199	
REEP4 (UniProt Q9H6H4)	inactive: -0.023	inactive: -0.043	inactive: -0.011		inactive: -0.015		inactive: 0.079	inactive: 0.051	inactive: -0.134	inactive: -0.08
RIOK3 (UniProt O14730)	inactive: 0.084	inactive: 0.04	inactive: -0.01		inactive: -0.011		inactive: -0.023	inactive: -0.053	inactive: -0.041	inactive: 0.072
RETSAT (UniProt Q6NUM9)	inactive: -0.073	inactive: -0.073	inactive: 0.024		inactive: 0.036		inactive: -0.011	inactive: -0.012	inactive: 0.053	inactive: -0.003
RCOR1 (UniProt Q9UKL0)	inactive: 0.116	inactive: 0.001	inactive: 0.212		inactive: 0.006		inactive: -0.024	inactive: -0.033	inactive: -0.037	inactive: 0.002
RIPK1 (UniProt Q13546)	inactive: -0.069	active: -0.478	inactive: 0.12		inactive: 0.08		inactive: 0.022	inactive: 0.041	inactive: -0.099	inactive: -0.01
RFX3 (UniProt P48380)	inactive: 0.127	inactive: -0.046		inactive: -0.055		inactive: 0.153				
RETREG3 (UniProt Q86VR2)	inactive: -0.04	inactive: -0.132	inactive: 0		inactive: 0.008		inactive: -0.02	inactive: -0.043	inactive: -0.149	inactive: 0.048
RICTOR isoform 3 (UniProt Q6R327)	inactive: -0.271	active: -0.758	inactive: -0.033				inactive: 0.265	inactive: -0.083	inactive: -0.169	inactive: 0.064
RCC1 isoform 2 (UniProt P18754)	inactive: -0.037	inactive: -0.063	inactive: 0.044		inactive: 0.168		inactive: -0.09	inactive: -0.02	inactive: 0.11	inactive: 0.118
RNF146 (UniProt Q9NTX7)	inactive: 0.121	inactive: -0.168		inactive: 0.038	inactive: 0.064	inactive: 0.067	inactive: 0.032			inactive: 0.016
RNF220 (UniProt Q5VTB9)	inactive: -0.047	inactive: -0.114	inactive: 0.085		inactive: -0.03		inactive: -0.045	inactive: -0.043	inactive: 0.003	inactive: -0.021
RCOR3 isoform 3 (UniProt Q9P2K3)	inactive: 0.005	inactive: -0.068	inactive: -0.078		inactive: 0.038		inactive: 0.02	inactive: -0.294	inactive: -0.011	
RBM8A (UniProt Q9Y5S9)	inactive: -0.051	inactive: -0.041	inactive: 0.038		inactive: -0.037		inactive: -0.035	inactive: 0.014	inactive: 0.065	inactive: 0.005
RFC3 (UniProt P40938)	inactive: -0.008	inactive: -0.052	inactive: 0.047		inactive: 0.038		inactive: -0.096	inactive: -0.081	inactive: -0.008	inactive: 0.042
RIC8A isoform 3 (UniProt Q9NPQ8)	inactive: -0.149	active: -0.526	inactive: 0.11		inactive: 0.011		inactive: -0.005	inactive: 0.036	inactive: -0.186	inactive: 0.061
RNASEH2A (UniProt O75792)	inactive: -0.062	inactive: -0.075	inactive: 0.068		inactive: -0.118		inactive: -0.019	inactive: -0.061	active: -0.394	inactive: 0.061
RDH10 (UniProt Q8IZV5)	inactive: 0.068	inactive: 0.037	inactive: 0.034		inactive: -0.006		inactive: -0.19	inactive: 0.021	inactive: 0.09	inactive: -0.026
RELA (UniProt Q04206)	inactive: -0.063	active: -0.263	inactive: 0.013		inactive: -0.019		inactive: -0.009	inactive: -0.043	inactive: -0.011	inactive: 0.025

A second format for some results above.

| Target | log2 fold change [1] | log2 fold change (volasertib) | log2 fold change [2] | log2 fold change [3] | log2 fold change [4] | log2 fold change (rosiglitazone) | log2 fold change [5] | log2 fold change [6] | log2 fold change [7] | log2 fold change (epoxomicin) |
| --- | --- | --- | --- | --- | --- | --- | --- | --- | --- | --- |
| RETREG2 (UniProt Q8NC44) | inactive: 0.002 | inactive: -0.069 | inactive: -0.021 | inactive: -0.022 | inactive: 0.022 | inactive: 0.004 | inactive: 0.031 |  |  |  |
| RLIM (UniProt Q9NVW2) | inactive: 0.15 | inactive: 0 |  |  | inactive: -0.04 |  | inactive: -0.125 | inactive: -0.231 | inactive: -0.08 |  |
